# Measurements published in the supplement of paper PMC6411743.
# ± gives the standard deviation of the averaged measurements. This is one part of the list.
# How the values were obtained:
# Test in all cases: NP40-soluble protein abundance relative to vehicle (solubility fold change) (ratio); higher = more soluble protein in presence of GTP
# [1] = target: T1, A8K878 and related entries (UniProt P55145)
# T1 sequence (whole entry): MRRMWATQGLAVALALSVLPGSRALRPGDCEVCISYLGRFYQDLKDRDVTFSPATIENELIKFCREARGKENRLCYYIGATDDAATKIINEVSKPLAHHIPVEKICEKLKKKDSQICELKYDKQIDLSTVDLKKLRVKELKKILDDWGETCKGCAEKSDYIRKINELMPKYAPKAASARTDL
# In short: (§1)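 Eight concentrations, 0.1 to 10 mM, were tested on Jurkat crude lysate for 10 min at room temperature and then 3 min at 37 °C, in three independent experiments. The lysate was solubilised with 0.8% NP40 and benzonase, ultracentrifuged, and the supernatant TMT-labelled for LC-MS/MS. Each value is the fold change against the detergent-processed vehicle in its own replicate, from vsn-normalised intensities.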
# [2] = target: T2, B1ALK7 and related entries (UniProt Q14155)
# T2 sequence (whole entry): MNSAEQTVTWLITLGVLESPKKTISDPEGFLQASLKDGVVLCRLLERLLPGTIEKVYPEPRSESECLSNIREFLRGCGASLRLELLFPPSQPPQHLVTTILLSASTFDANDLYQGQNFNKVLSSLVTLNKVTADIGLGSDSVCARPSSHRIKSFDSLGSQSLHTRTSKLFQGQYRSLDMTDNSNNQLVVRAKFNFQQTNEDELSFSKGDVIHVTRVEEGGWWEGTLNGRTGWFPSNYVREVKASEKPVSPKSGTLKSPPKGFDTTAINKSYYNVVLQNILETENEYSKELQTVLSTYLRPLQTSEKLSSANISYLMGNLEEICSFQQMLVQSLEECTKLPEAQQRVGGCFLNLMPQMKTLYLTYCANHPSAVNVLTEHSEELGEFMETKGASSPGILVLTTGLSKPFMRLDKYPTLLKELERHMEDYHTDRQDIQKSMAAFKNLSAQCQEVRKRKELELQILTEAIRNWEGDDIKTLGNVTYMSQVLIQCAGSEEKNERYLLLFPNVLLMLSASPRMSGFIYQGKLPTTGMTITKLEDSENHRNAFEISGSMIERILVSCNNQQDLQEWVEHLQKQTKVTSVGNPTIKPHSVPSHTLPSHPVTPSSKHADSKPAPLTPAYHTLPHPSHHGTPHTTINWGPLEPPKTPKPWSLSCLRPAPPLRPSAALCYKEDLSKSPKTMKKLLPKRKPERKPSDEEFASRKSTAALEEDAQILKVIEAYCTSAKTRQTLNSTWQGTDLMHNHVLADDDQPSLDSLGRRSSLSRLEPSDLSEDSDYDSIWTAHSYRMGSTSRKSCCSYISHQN
# In short: as §1
# [3] = target: T3, B4DH95 and related entries (UniProt Q6P9H5)
# T3 sequence (whole entry): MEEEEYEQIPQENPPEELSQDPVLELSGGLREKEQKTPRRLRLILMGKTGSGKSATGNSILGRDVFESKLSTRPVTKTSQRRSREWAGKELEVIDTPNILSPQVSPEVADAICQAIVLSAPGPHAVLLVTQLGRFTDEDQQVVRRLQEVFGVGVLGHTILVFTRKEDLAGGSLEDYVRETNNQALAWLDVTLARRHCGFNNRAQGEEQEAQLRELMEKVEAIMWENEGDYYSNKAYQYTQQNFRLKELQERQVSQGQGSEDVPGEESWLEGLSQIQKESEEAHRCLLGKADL
# In short: as §1
# [4] = target: T4, B4DI03 and related entries (UniProt Q9BY50)
# T4 sequence (whole entry): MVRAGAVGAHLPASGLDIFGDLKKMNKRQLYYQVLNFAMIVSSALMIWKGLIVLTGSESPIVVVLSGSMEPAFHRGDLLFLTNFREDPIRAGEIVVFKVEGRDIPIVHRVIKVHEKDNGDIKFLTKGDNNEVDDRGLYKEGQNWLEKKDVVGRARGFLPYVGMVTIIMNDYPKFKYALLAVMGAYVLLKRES
# In short: as §1
# [5] = target: T5, B5MCT7 and related entries (UniProt P49593)
# T5 sequence (whole entry): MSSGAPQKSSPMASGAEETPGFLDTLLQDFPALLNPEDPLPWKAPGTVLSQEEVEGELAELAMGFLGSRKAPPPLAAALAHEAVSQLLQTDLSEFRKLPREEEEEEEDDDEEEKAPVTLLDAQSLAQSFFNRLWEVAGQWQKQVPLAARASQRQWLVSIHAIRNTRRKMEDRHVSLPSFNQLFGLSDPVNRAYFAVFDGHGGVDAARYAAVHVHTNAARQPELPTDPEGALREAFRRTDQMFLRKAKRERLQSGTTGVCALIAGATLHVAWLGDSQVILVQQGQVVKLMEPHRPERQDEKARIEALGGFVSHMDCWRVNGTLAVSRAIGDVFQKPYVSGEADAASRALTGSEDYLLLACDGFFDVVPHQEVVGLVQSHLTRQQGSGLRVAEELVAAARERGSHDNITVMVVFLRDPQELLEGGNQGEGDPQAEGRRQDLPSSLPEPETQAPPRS
# In short: as §1
# [6] = target: T6, B5MDU6 and related entries (UniProt Q9H6V9)
# T6 sequence (whole entry): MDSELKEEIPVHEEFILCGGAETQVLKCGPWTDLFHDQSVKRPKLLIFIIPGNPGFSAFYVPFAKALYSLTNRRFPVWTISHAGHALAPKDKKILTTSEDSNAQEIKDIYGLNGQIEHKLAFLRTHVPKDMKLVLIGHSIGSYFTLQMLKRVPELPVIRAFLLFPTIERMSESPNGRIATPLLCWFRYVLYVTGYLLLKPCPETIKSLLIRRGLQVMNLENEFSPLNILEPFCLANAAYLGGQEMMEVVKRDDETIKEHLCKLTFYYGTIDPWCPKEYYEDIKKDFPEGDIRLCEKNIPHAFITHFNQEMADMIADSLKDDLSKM
# In short: as §1
# [7] = target: T7, B7WPL0 and related entries (UniProt Q9NVN3)
# T7 sequence (whole entry): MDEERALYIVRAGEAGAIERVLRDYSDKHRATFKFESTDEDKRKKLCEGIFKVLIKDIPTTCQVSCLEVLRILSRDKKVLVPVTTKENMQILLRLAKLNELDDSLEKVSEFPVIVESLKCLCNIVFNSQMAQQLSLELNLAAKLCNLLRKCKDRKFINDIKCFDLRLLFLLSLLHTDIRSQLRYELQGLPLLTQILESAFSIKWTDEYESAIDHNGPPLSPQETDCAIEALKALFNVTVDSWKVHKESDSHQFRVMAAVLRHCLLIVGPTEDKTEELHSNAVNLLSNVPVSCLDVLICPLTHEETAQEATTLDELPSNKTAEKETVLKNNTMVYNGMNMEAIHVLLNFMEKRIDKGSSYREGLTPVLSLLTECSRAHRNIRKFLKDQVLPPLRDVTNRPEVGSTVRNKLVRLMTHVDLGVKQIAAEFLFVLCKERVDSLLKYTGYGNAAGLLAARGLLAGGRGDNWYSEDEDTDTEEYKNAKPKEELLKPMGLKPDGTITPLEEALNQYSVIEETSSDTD
# In short: as §1
smiles,measurement,setting,value
Nc1nc2c(ncn2[C@@H]2O[C@H](COP(=O)(O)OP(=O)(O)OP(=O)(O)O)[C@@H](O)[C@H]2O)c(=O)[nH]1 [guanosine triphosphate],NP40-soluble protein abundance,[1]; concentration: 0.1mM,0.783 ± 0.024
same,NP40-soluble protein abundance,[1]; concentration: 0.5mM,0.756 ± 0.026
same,NP40-soluble protein abundance,[1]; concentration: 1mM,0.967 ± 0.038
same,NP40-soluble protein abundance,[1]; concentration: 2mM,0.925 ± 0.055
same,NP40-soluble protein abundance,[1]; concentration: 4mM,0.925 ± 0.049
same,NP40-soluble protein abundance,[1]; concentration: 6mM,0.896 ± 0.043
same,NP40-soluble protein abundance,[1]; concentration: 8mM,0.824 ± 0.12
same,NP40-soluble protein abundance,[1]; concentration: 10mM,0.956 ± 0.036
same,NP40-soluble protein abundance,[2]; concentration: 0.1mM,0.994 ± 0.036
same,NP40-soluble protein abundance,[2]; concentration: 0.5mM,0.9903 ± 0.0023
same,NP40-soluble protein abundance,[2]; concentration: 1mM,1.004 ± 0.007
same,NP40-soluble protein abundance,[2]; concentration: 2mM,1.01 ± 0.028
same,NP40-soluble protein abundance,[2]; concentration: 4mM,0.996 ± 0.015
same,NP40-soluble protein abundance,[2]; concentration: 6mM,0.9797 ± 0.0044
same,NP40-soluble protein abundance,[2]; concentration: 8mM,1 ± 0.033
same,NP40-soluble protein abundance,[2]; concentration: 10mM,0.977 ± 0.046
same,NP40-soluble protein abundance,[3]; concentration: 0.1mM,1.12 ± 0.051
same,NP40-soluble protein abundance,[3]; concentration: 0.5mM,1.07 ± 0.079
same,NP40-soluble protein abundance,[3]; concentration: 1mM,0.99 ± 0.042
same,NP40-soluble protein abundance,[3]; concentration: 2mM,1.02 ± 0.11
same,NP40-soluble protein abundance,[3]; concentration: 4mM,1.03 ± 0.055
same,NP40-soluble protein abundance,[3]; concentration: 6mM,0.991 ± 0.044
same,NP40-soluble protein abundance,[3]; concentration: 8mM,0.953 ± 0.02
same,NP40-soluble protein abundance,[3]; concentration: 10mM,0.974 ± 0.085
same,NP40-soluble protein abundance,[4]; concentration: 0.1mM,0.955 ± 0.055
same,NP40-soluble protein abundance,[4]; concentration: 0.5mM,0.952 ± 0.031
same,NP40-soluble protein abundance,[4]; concentration: 1mM,0.905 ± 0.052
same,NP40-soluble protein abundance,[4]; concentration: 2mM,0.881 ± 0.07
same,NP40-soluble protein abundance,[4]; concentration: 4mM,0.888 ± 0.05
same,NP40-soluble protein abundance,[4]; concentration: 6mM,0.903 ± 0.068
same,NP40-soluble protein abundance,[4]; concentration: 8mM,0.886 ± 0.027
same,NP40-soluble protein abundance,[4]; concentration: 10mM,0.859 ± 0.048
same,NP40-soluble protein abundance,[5]; concentration: 0.1mM,0.965 ± 0.084
same,NP40-soluble protein abundance,[5]; concentration: 0.5mM,0.918 ± 0.076
same,NP40-soluble protein abundance,[5]; concentration: 1mM,0.925 ± 0.059
same,NP40-soluble protein abundance,[5]; concentration: 2mM,0.891 ± 0.081
same,NP40-soluble protein abundance,[5]; concentration: 4mM,0.892 ± 0.081
same,NP40-soluble protein abundance,[5]; concentration: 6mM,0.863 ± 0.061
same,NP40-soluble protein abundance,[5]; concentration: 8mM,0.887 ± 0.077
same,NP40-soluble protein abundance,[5]; concentration: 10mM,0.867 ± 0.067
same,NP40-soluble protein abundance,[6]; concentration: 0.1mM,0.964 ± 0.021
same,NP40-soluble protein abundance,[6]; concentration: 0.5mM,0.997 ± 0.041
same,NP40-soluble protein abundance,[6]; concentration: 1mM,0.947 ± 0.04
same,NP40-soluble protein abundance,[6]; concentration: 2mM,0.91 ± 0.029
same,NP40-soluble protein abundance,[6]; concentration: 4mM,0.873 ± 0.024
same,NP40-soluble protein abundance,[6]; concentration: 6mM,0.868 ± 0.021
same,NP40-soluble protein abundance,[6]; concentration: 8mM,0.853 ± 0.029
same,NP40-soluble protein abundance,[6]; concentration: 10mM,0.827 ± 0.041
same,NP40-soluble protein abundance,[7]; concentration: 0.1mM,1.1 ± 0.074
same,NP40-soluble protein abundance,[7]; concentration: 0.5mM,1.03 ± 0.038
same,NP40-soluble protein abundance,[7]; concentration: 1mM,1.02 ± 0.047
same,NP40-soluble protein abundance,[7]; concentration: 2mM,1.02 ± 0.12
same,NP40-soluble protein abundance,[7]; concentration: 4mM,0.991 ± 0.084
same,NP40-soluble protein abundance,[7]; concentration: 6mM,0.947 ± 0.059
same,NP40-soluble protein abundance,[7]; concentration: 8mM,0.929 ± 0.044
same,NP40-soluble protein abundance,[7]; concentration: 10mM,0.929 ± 0.026

# Retrieved one by one from the entries so far, 2 records:
smiles,measurement,setting,value
Nc1nc2c(ncn2[C@@H]2O[C@H](COP(=O)(O)OP(=O)(O)OP(=O)(O)O)[C@@H](O)[C@H]2O)c(=O)[nH]1 [guanosine triphosphate],NP40-soluble protein abundance,[1]; concentration: 0.5mM,0.756 ± 0.026
same,NP40-soluble protein abundance,[1]; concentration: 0.1mM,0.783 ± 0.024
